In article PMC8930183, “Structure of the Pf12 and Pf41 heterodimeric complex of Plasmodium falciparum 6-cysteine proteins” (FEMS Microbes, 2022):
These are yes or no findings as the source states them, for the method shown.

By UniProt entry, the sequences of proteins in these tests, tags left out. Residues count along the entry.
UniProt Q8I1Y0, residues 21-368: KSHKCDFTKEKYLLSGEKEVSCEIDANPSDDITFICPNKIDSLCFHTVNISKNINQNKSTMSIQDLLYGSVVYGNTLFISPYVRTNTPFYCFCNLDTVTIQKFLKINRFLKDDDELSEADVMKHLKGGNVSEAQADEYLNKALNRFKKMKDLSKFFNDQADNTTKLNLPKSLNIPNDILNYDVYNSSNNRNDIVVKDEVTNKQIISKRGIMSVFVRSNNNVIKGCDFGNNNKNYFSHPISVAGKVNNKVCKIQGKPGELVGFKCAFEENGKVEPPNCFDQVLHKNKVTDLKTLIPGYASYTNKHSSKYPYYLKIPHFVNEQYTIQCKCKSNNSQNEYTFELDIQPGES

Molecular target: octa-histidine tagged Pf41 D1D2 (residues 21-368) (Plasmodium falciparum) (UniProt Q8I1Y0)
Test: BLI; Octet RED96e; octa-histidine tagged Pf41 loaded on NTA sensors; untagged Pf12 wildtype, mutant or single domain 31-1000 nM; PBS pH 7.4, 0.1% BSA, 0.05% TWEEN-20, 25°C; read-out relative maximum response against wildtype; both purified

B1: Pf12 D1 (residues N28-L172) (domain or fragment, UniProt C6KSX0 28-172)
chain: NLTCDFNDVYKLEFHPNQQTSVTKLCNLTPNVLEKVTIKCGSDKLNYNLYPPTCFEEVYASRNMMHLKKIKEFVIGSSMFMRRSLTPNKINEVSFRIPPNMMPEKPIYCFCENKKTITINGSNGNPSSKKDIINRGIVEIIIPSL
Q: How did the binding turn out when B1 was run?
A: Its binding is “no binding”.

B2: Pf12 D2 (residues E174-S304) (domain or fragment, UniProt C6KSX0 174-304)
chain: EKVKGCDFTTSESTIFSKGYSINEISNKSSNNQQDIVCTVKAHANDLIGFKCPSNYSVEPHDCFVSAFNLSGKNENLENKLKLTNIIMDHYNNTFYSRLPSLISDNWKFFCVCSKDNEKKLVFTVEASISS
Q: How did the binding turn out when B2 was run?
A: Its binding is “no binding”.
